# Reference: the supplement of paper PMC12823440, “Inhibitors supercharge kinase turnover through native proteolytic circuits” (Nature, 2025)
# Amino acid sequences for entries named in this document (tags omitted). A change or cut given only in a name is not applied to a line headed by its entry.
# UniProt P07947, whole entry, looked up: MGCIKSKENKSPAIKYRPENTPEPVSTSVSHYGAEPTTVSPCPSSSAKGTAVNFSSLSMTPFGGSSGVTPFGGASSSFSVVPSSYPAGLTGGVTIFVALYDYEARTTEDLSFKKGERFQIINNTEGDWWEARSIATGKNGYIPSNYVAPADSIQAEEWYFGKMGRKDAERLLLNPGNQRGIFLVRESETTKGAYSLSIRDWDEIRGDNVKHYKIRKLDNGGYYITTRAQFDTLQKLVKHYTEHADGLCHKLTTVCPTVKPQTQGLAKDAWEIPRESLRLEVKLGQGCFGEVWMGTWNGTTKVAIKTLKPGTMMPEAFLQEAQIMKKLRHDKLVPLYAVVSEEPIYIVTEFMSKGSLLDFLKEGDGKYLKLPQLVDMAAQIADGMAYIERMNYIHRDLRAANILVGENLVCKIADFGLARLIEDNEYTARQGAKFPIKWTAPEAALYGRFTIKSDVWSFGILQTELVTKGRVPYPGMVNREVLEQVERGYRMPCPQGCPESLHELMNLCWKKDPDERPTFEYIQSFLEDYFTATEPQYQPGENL
# UniProt P43403: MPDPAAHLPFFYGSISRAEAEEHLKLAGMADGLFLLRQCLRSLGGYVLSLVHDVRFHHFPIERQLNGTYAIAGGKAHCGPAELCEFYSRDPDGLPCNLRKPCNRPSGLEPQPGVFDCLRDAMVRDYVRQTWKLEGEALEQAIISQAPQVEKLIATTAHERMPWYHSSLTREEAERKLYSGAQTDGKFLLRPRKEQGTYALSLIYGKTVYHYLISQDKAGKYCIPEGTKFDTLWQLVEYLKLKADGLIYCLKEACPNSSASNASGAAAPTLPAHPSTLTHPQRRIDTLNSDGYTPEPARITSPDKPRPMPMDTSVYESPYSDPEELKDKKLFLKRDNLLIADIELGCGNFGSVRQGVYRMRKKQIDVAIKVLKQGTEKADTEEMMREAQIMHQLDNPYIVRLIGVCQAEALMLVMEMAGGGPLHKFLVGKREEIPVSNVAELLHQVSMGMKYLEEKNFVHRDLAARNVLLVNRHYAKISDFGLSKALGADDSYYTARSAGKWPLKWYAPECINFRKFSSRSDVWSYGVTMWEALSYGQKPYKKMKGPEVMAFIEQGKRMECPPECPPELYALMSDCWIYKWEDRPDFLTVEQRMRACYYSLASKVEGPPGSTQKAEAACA
# UniProt P11802: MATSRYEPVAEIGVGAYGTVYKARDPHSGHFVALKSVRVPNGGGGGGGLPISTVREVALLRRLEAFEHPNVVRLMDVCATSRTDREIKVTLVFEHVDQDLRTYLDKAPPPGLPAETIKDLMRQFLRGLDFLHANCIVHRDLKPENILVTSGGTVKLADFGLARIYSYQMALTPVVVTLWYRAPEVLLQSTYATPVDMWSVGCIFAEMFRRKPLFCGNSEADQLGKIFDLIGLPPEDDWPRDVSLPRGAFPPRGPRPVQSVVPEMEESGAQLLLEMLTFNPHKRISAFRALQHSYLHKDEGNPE
# UniProt P50613: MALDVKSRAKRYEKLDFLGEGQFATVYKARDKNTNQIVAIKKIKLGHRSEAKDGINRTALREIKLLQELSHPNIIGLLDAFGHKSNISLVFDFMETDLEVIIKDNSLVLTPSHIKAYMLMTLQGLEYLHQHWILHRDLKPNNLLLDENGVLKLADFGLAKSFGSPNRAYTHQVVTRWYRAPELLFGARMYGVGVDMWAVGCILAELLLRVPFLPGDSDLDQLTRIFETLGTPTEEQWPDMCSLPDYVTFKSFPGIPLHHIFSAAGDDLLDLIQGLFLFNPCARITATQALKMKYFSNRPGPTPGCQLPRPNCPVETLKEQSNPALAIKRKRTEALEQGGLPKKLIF
# UniProt P50750, whole entry: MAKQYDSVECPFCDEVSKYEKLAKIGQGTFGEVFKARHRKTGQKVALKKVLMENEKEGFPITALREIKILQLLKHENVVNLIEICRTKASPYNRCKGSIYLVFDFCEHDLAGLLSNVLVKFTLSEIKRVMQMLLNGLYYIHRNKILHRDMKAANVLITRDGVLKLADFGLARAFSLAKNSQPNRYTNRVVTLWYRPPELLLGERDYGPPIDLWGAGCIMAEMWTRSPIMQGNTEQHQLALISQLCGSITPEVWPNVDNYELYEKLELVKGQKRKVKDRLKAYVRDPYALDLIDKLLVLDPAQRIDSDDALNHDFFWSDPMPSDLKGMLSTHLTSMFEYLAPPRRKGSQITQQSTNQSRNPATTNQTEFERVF
# Counter-ions that a name gives are not always drawn. The list shows a part of the results. The calls rarely recur for the same compound in another form.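 Kinases were expressed as nanoluciferase fusions in K562 cells and luminescence was read every 4 h between 2 and 18 h as percent of control, DMSO set to 100% and a positive control to 0%. A time point counts as decreased when the signal drops significantly (2 sigma). The hit call is the authors' own, does not follow from the count of time points alone, and its rule is not shown.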
# Experiments:
# Conditions in all cases: K562; 2-18 h
# [1] = target: YES1 (UniProt P07947); experiment: number of time points (of 5) at which kinase-Nluc abundance scored as decreased, DMSO-normalised (count); higher = more persistent destabilization
# [2] = target: ZAK (UniProt Q9NYL2); experiment: as above
# [3] = target: ZAP70 (UniProt P43403); experiment: as above
# [4] = target: CDK4 (UniProt P11802); experiment: number of time points (of 4; 2 h point missing) at which kinase-Nluc abundance scored as decreased, DMSO-normalised (count); higher = more persistent destabilization
# [5] = target: CDK7 (UniProt P50613); experiment: as above
# [6] = target: CDK9 (UniProt P50750); experiment: as above
SMILES,number of time points [1],number of time points [2],number of time points [3],number of time points [4],number of time points [5],number of time points [6]
O=Cc1cn(Cc2ccc(Cl)cc2)c2ccccc12 [Oncrasin-1] (10 µM),0,0,0,0,0,0
CC(C)(C)c1cc(C=C(C#N)C#N)cc(Br)c1O (2.5 µM),0,0,0,0,0,0
O=C1c2ccccc2C(=O)c2c1cccc2-c1cnn(C2CCNCC2)c1 [PDK4-IN-1 (hydrochloride)] (10 µM),0,0,0,0,0,0
COc1ccc2c(c1)/C(=C/c1cnc[nH]1)C(=O)N2 (2.5 µM),0,0,0,0,0,0
CC(=O)O[C@H]1[C@H]2[C@@H](OC(=O)Cc3ccccc3)[C@@H](C)C[C@]2(OC(C)=O)C(=O)/C(C)=C/[C@@H]2[C@H](CC[C@@]13CO3)C2(C)C [Euphorbiasteroid] (10 µM),0,0,0,0,0,0
CC(=O)OC(C)(C)/C=C/C(=O)[C@](C)(O)[C@H]1[C@H](O)C[C@@]2(C)[C@@H]3CC=C4[C@@H](C=C(O)C(=O)C4(C)C)[C@]3(C)C(=O)C[C@]12C [Cucurbitacin E] (2.5 µM),1,0,0,0,0,1
Cc1ccccc1-n1c(Cn2ncc3c(N)ncnc32)nc2cccc(C)c2c1=O (10 µM),0,0,0,0,0,0
Nc1ncnc2c1ncn2[C@@H]1O[C@@H]2COP(O)(=S)O[C@H]2[C@H]1O (some centres not stated) [Sp-cAMPS (sodium salt)] (10 µM),0,0,0,0,0,0
O=C1C=CC[C@@H]2[C@H]3CCCN4CCC[C@@H](CN12)[C@@H]34 [Sophocarpine] (10 µM),0,0,0,0,0,0
CCCCCCCCCCCCCCCCOC[C@H](COP(=O)([O-])OCC[N+](C)(C)C)OC(C)=O (10 µM),0,0,0,0,0,0
O=[N+]([O-])/C=C/c1ccc2c(c1)OCO2 (2.5 µM),0,0,0,0,0,0
C=C[C@H]1CN2CC[C@]3(C(=O)Nc4ccccc43)[C@@H]2C[C@@H]1/C(=C\OC)C(=O)OC [Corynoxeine] (2 µM),0,0,0,0,0,0
O=C(N[C@@H](COc1ccc2[nH]c(=O)[nH]c2c1)c1ccccc1)c1cccn(Cc2ccc(F)c(F)c2)c1=O (2.5 µM),0,0,0,0,0,0
COc1ccc(N(C(=O)Oc2c(C)cccc2C)c2ccnc(Nc3ccc(N4CCN(C)CC4)cc3)n2)c(OC)c1 (2.5 µM),0,0,0,0,0,0
CCOC(=O)c1c(/C(C#N)=C\N)c2ccc(Cl)c(Cl)c2n1C (10 µM),0,0,0,0,0,0
COc1ccc2c(c1OC)C(OC)N(C)c1c-2ccc2cc3c(cc12)OCO3 (configuration not stated) [Angoline] (10 µM),0,0,0,0,0,0
COc1ccc2c(c1)[nH]c1c(C)nccc12 [Harmine] (10 µM),0,0,0,0,0,0
O=C(O)c1nn(Cc2ccc(Cl)cc2Cl)c2ccccc12 [Lonidamine] (10 µM),0,0,0,0,0,0
CC(=O)Oc1ccc(/C=C/c2cc(OC(C)=O)cc(OC(C)=O)c2)cc1 [Triacetylresveratrol] (10 µM),0,0,0,0,0,0

SMILES,number of time points [1],number of time points [2],number of time points [3],number of time points [4],number of time points [5],number of time points [6]
Cc1ccccc1-n1c(Cn2cnc3c(N)ncnc32)nc2cccc(C)c2c1=O (10 µM),0,0,0,0,0,0
C[C@@H]1CC[C@H]2[C@@H](C)C(=O)O[C@@H]3O[C@@]4(C)CC[C@@H]1[C@]32OO4 [Artemisinin] (10 µM),0,0,0,0,0,0
C/C=C(/C)C(=O)O[C@H]1[C@@H]2[C@H](C)C(=O)O[C@@H]2C[C@@H](C)[C@@H]2C=CC(=O)[C@]21C [Brevilin A] (2.5 µM),0,0,0,0,0,0
COC[C@H]1OC(=O)c2coc3c2[C@@]1(C)C1=C(C3=O)[C@@H]2CCC(=O)[C@@]2(C)C[C@H]1OC(C)=O [Wortmannin] (2.5 µM),0,0,0,0,3,0
C=CC(=O)Nc1ccc2[nH]c(=O)n(C3CCN(Cc4ccc(-c5nc6cc[nH]c(=O)c6cc5-c5ccccc5)cc4)CC3)c2c1 [Borussertib] (10 µM),0,0,0,0,0,0
O=C1C=CC[C@@H]2[C@H]3CCCN4CCC[C@@H](CN12)[C@@H]34 [Sophocarpine (monohydrate)] (2.5 µM),0,0,0,0,0,0
COc1ccc2c(c[n+](C)c3c4cc5c(cc4ccc23)OCO5)c1OC [Chelerythrine (chloride)] (10 µM),0,4,0,0,0,0
CC(=O)c1c(O)c(C)c(O)c(Cc2c(O)c3c(c(C(=O)/C=C/c4ccccc4)c2O)OC(C)(C)C=C3)c1O [Rottlerin] (2 µM),0,0,0,0,0,0
O=C(/C=C/c1ccccc1)OC[C@H]1O[C@@H](O[C@@H]2OC=C[C@H]3[C@H](O)[C@@H]4O[C@]4(CO)[C@@H]23)[C@H](O)[C@@H](O)[C@@H]1O [Picroside I] (10 µM),0,0,0,0,0,0
CC(C)=CC[C@@H](OC(=O)CC(C)(C)O)C1=CC(=O)c2c(O)ccc(O)c2C1=O [β-Hydroxyisovalerylshikonin] (2.5 µM),0,0,0,0,0,0
O=c1[nH]c2ccccc2n1C1CCN(CCCC(c2ccc(F)cc2)c2ccc(F)cc2)CC1 [Pimozide] (2.5 µM),0,0,0,0,0,0
CCN1CCN(C(=O)Cc2ccc(Nc3ncc(F)c(Nc4ccc(C(=O)Nc5ccccc5Cl)cc4)n3)cc2)CC1 (2.5 µM),0,0,0,0,0,0
N#CC(C#N)=Cc1ccc([N+](=O)[O-])c(O)c1 (10 µM),0,0,0,0,0,0
Cc1[nH]ncc1-c1cc2nc([C@H]3CC4CCN3CC4)[nH]c(=O)c2s1 [(R)-Simurosertib] (10 µM),0,0,0,0,0,0
O=c1ccc2cc(O[C@@H]3O[C@H](CO)[C@@H](O)[C@H](O)[C@H]3O)c(O)cc2o1 [Esculin] (10 µM),0,0,0,0,0,0
CN(C)C(=O)c1ccc(Cn2c(C(=O)O)cc3c(Br)cc(Sc4ccc(Cl)c(Cl)c4)cc32)cc1 [Rheb inhibitor NR1] (10 µM),0,0,0,0,0,0
Cc1n[nH]cc1-c1cc2nc([C@@H]3CC4CCN3CC4)[nH]c(=O)c2s1 [Simurosertib] (2.5 µM),0,0,0,0,0,0
CC1=C[C@]23C(=O)[C@@H](C=C(CO)[C@@H](O)[C@]2(O)[C@H]1O)[C@H]1[C@@H](C[C@H]3C)C1(C)C [Ingenol] (10 µM),0,0,0,0,0,0
NCCc1cn(S(=O)(=O)c2c(Cl)nc3sccn23)c2ccccc12 (10 µM),0,0,0,0,0,0

SMILES,number of time points [1],number of time points [2],number of time points [3],number of time points [4],number of time points [5],number of time points [6]
C=CC(=O)N[C@H]1C=C(C)c2c(-c3cnc4ccccc4c3)c3c(N)ncnc3n2C1 (10 µM),0,0,0,0,0,0
N#CC(C#N)=NNc1cccc(Cl)c1 (2.5 µM),0,0,0,0,2,0
COc1cc2c(cc1F)C(c1ccccc1Cl)=Nc1c(n[nH]c1C)N2 (0.5 µM),0,0,0,0,0,0
N#CC(C#N)=Cc1ccc(O)c(O)c1 [Tyrphostin 23] (10 µM),0,0,0,0,0,0
C[S+]([O-])/C=C/CCN=C=S (configuration not stated) [Sulforaphene] (10 µM),0,0,0,0,0,0
C[C@H]1CC[C@]2(NC1)O[C@H]1C[C@H]3[C@@H]4CC[C@H]5C[C@@H](O)CC[C@]5(C)[C@H]4CC[C@]3(C)[C@H]1[C@@H]2C [Tomatidine] (2 µM),0,0,0,0,0,0
COc1ccc(/C=C/c2cc(OC)c(OC)c(OC)c2)cc1 (2.5 µM),1,1,0,0,1,0
C/C(O)=C(\C#N)C(=O)Nc1cc(Br)ccc1Br (10 µM),0,0,0,0,0,0
CCCS(=O)(=O)Nc1ccc(F)c(-n2cc(-c3cncnc3)c3nc(N(C)C4CCN(CC)CC4)ccc32)c1F (2 µM),0,0,0,0,0,0
CC1C(=O)OC2C(O)C34C5OC(=O)C3(OC3OC(=O)C(O)C34C(C(C)(C)C)C5O)C12O (configuration not stated) [Ginkgolide C] (10 µM),0,0,0,0,0,0
O=c1[nH]c2ccccc2n1C1CCN(Cc2ccc(-c3[nH]c4cc5ncnc5cc4nc3-c3ccccc3)cc2)CC1 [AKT inhibitor VIII] (2.5 µM),0,0,0,0,0,0
C[C@H](Nc1ncnc2[nH]cnc12)c1nc2ccc(F)cc2c(=O)n1-c1ccccc1 [Acalisib] (10 µM),0,0,0,0,0,0
C[C@H]1CC[C@]2(NC1)O[C@H]1C[C@H]3[C@@H]4CC[C@H]5C[C@@H](O)CC[C@]5(C)[C@H]4CC[C@]3(C)[C@H]1[C@@H]2C [Tomatidine (hydrochloride)] (10 µM),0,0,0,0,0,0
O=C(O)c1sc2cc(Cl)ccc2c1Cl (10 µM),0,0,0,0,0,0
Cn1cc(C2=C(c3cn(C4CCN(Cc5ccccn5)CC4)c4ccccc34)C(=O)NC2=O)c2ccccc21 [Enzastaurin] (10 µM),0,0,0,0,0,0
C[C@H]1CC[C@]2(NC1)O[C@H]1C[C@H]3[C@@H]4CC[C@H]5C[C@@H](O[C@@H]6O[C@H](CO)[C@H](O[C@@H]7O[C@H](CO)[C@@H](O)[C@H](O[C@@H]8OC[C@@H](O)[C@H](O)[C@H]8O)[C@H]7O[C@@H]7O[C@H](CO)[C@@H](O)[C@H](O)[C@H]7O)[C@H](O)[C@H]6O)CC[C@]5(C)[C@H]4CC[C@]3(C)[C@H]1[C@@H]2C [Tomatine] (2.5 µM),4,0,0,0,3,1
C[C@H](CCC(=O)O)C[C@H](C)C[C@H](C)C(=O)/C=C(\O)[C@H](C)C[C@H](C)C/C=C/[C@@H](C)[C@@H](O)[C@@H](C)[C@@H](O)C[C@@H]1CC[C@@](C)([C@H]2CC[C@@](C)([C@@H](C)O)O2)O1 [Ionomycin (calcium)] (2.5 µM),0,0,0,0,0,0
CCCCNc1nc(N)c2[nH]c(=O)n(Cc3ccc(C)nc3)c2n1 (10 µM),0,0,0,0,0,0
O=c1cc(O)c2ccccc2o1 [4-Hydroxycoumarin] (10 µM),0,0,0,0,0,0

# 4 consecutive entries from above, for reference:
SMILES,number of time points [1],number of time points [2],number of time points [3],number of time points [4],number of time points [5],number of time points [6]
Cn1cc(C2=C(c3cn(C4CCN(Cc5ccccn5)CC4)c4ccccc34)C(=O)NC2=O)c2ccccc21 [Enzastaurin] (10 µM),0,0,0,0,0,0
C[C@H]1CC[C@]2(NC1)O[C@H]1C[C@H]3[C@@H]4CC[C@H]5C[C@@H](O[C@@H]6O[C@H](CO)[C@H](O[C@@H]7O[C@H](CO)[C@@H](O)[C@H](O[C@@H]8OC[C@@H](O)[C@H](O)[C@H]8O)[C@H]7O[C@@H]7O[C@H](CO)[C@@H](O)[C@H](O)[C@H]7O)[C@H](O)[C@H]6O)CC[C@]5(C)[C@H]4CC[C@]3(C)[C@H]1[C@@H]2C [Tomatine] (2.5 µM),4,0,0,0,3,1
C[C@H](CCC(=O)O)C[C@H](C)C[C@H](C)C(=O)/C=C(\O)[C@H](C)C[C@H](C)C/C=C/[C@@H](C)[C@@H](O)[C@@H](C)[C@@H](O)C[C@@H]1CC[C@@](C)([C@H]2CC[C@@](C)([C@@H](C)O)O2)O1 [Ionomycin (calcium)] (2.5 µM),0,0,0,0,0,0
CCCCNc1nc(N)c2[nH]c(=O)n(Cc3ccc(C)nc3)c2n1 (10 µM),0,0,0,0,0,0
